15 compounds from PubChem BioAssay AID2685 (National Center for Advancing Translational Sciences (NCATS), 2010) can be followed below.

Structures are written as SMILES. This is one part of the list. The main result of the screen is listed elsewhere. These columns were measured beside it and carry no call. Most of these compounds were active or inconclusive in the main read-out, so they are no random draw. Words in brackets tell the shape of the fitted curve; partial curves, single points and poor fits give uncertain potencies.

One may read the AC50 as the midpoint of the concentration-response curve, whichever way the signal moves. A higher AC50 goes with weaker potency.

The experiment can be described thus: qHTS Assay for Lipid Storage Modulators in Drosophila S3 Cells.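 As to cell number change: cells counted by Cell Tracker Red CMTPX staining in the red channel.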 Conditions: BODIPY lipid droplet fluorescence, 18-24 h; for cell number change: measured here: cell count max response, cells fed with added oleic acid. A digest of the protocol:
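Drosophila S3 cells loaded with oleic acid (400 uM, as added) and compounds at several concentrations; lipid droplets imaged by 488-nm laser-scanning cytometry, 500–530 nm intensity and object ratio to cell channel. Percent activity normalized to 20 uM Triacsin C.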
(Quantitative high-throughput screening tests each substance at several concentrations.)

The mark [1] stands for this setting: measured here: lipid fluorescence (Fed channel) AC50, cells fed with added oleic acid.
Where [2] appears, read: measured here: cell number channel AC50, cells fed with added oleic acid.

As for `Cc1noc(/C=C/N(C)C)c1S(=O)(=O)N1CCC(C(=O)NC(C)(C)C)CC1`, the cell number change was -18.6%. Further, under setting [1], the AC50 is 10.3 µM [rising, partial curve, poor fit].
Regarding `CC1(C)C(c2ccc(Cl)cc2)=[N+]([O-])C2(CCCC/C2=N\O)N1O` (configuration not stated), the cell number change is -1.48%. Besides, under setting [1], the AC50 is 0.116 µM [falling, full curve, poor fit].
For `FC(F)(F)c1n[nH]c(=S)n1/N=C/c1ccco1`, the cell number change was -38.6%. Moreover, the AC50 under setting [2] was 25.9 µM [falling, single point]. For the same compound, the AC50 under setting [1] is 16.4 µM [falling, single point].
For `CCOc1ccccc1C(=O)NCC(=O)NCC(C)(C)N1CCOCC1`, the cell number change came to 22.3%. For the same compound, the AC50 under setting [1] was 10.3 µM [rising, partial curve].
Consider `c1ccc2c(c1)OCC(CNc1ncnc3sccc13)O2` (configuration not stated), for which the cell number change was -46.7%. In addition, the AC50 under setting [2] was 1.16 µM [falling, full curve]. The AC50 under setting [1] was 0.58 µM [falling, full curve].
Turning to `COc1ccc(-c2cc(C(F)(F)F)nc(S(=O)(=O)CCCC(=O)Nc3cc(C)on3)n2)cc1OC`, the cell number change was -45.8%. Under setting [2], the AC50 was 13 µM [falling, partial curve, poor fit]. Also, under setting [1], the AC50 was 18.4 µM [falling, partial curve].
Take `Cc1cc(C(C)(C)C)oc1C(=O)N(CC(=O)NC1CCCC1)Cc1ccccc1Cl`: the cell number change is 28%. Under setting [1], the AC50 was 3.66 µM [rising, single point].
Regarding `COc1ccc2nc(NC(=O)Cc3cccs3)sc2c1`, the cell number change was determined as 21.8%. Further, the AC50 under setting [2] was 0.517 µM [rising, full curve, poor fit].
Consider `O=C(COc1ccc(Br)cc1CO)Nc1ccccc1F`, for which the cell number change worked out at 3.43%. In addition, under setting [1], the AC50 is 4.11 µM [falling, full curve].
On to `Cc1cc(C(=O)NNC2CC(=O)N(c3ccc4ccccc4c3)C2=O)c(C)o1` (configuration not stated), for which the cell number change was -1.31%. In addition, under setting [2], the AC50 was 0.0731 µM [falling, full curve, poor fit]. Besides, the AC50 under setting [1] is 0.0731 µM [falling, full curve, poor fit].
Turning to `N=C1C(c2nc3ccccc3c(=O)[nH]2)=C(O)CN1CCO`, the AC50 under setting [1] was 0.146 µM [falling, full curve, poor fit].
`COc1ccc(CCn2c(NCc3ccco3)nc3c2c(=O)[nH]c(=O)n3C)cc1`: the cell number change was -7.49%. The AC50 under setting [1] is 6.51 µM [falling, single point].
As for `O=C(NC1CCCC1)C(c1cccnc1)N(CCc1ccccc1)C(=O)c1ccco1` (configuration not stated), the cell number change was -12.4%. Also, the half-maximal activity concentration (AC50) under setting [1] was 2.59 µM [rising, single point].
For `C=CCN1C(c2ccc(Br)cc2)=CS/C1=C(/C#N)c1nnc(N2CCOCC2)n1-c1ccccc1`, the cell number change came out at 15.8%. Besides, under setting [1], the AC50 is 0.517 µM [rising, full curve, poor fit].
On to `N#CCC(=N)N1CCN(c2ccccc2)CC1`, for which the cell number change was 6.37%.
